Article PMC12823551
No constants are given. Whether binding was seen depends on the method and setting. In cells and extracts the contact can be indirect. Some binding calls cover weakened binding; strength is not graded here.

Target: E2F4 (human (endogenous in hPSC-derived neuroectoderm cells)), Q16254
Test: co-IP; neuroectoderm cells; nuclear and chromatin (Benzonase) extracts in Nuclear Lysis Buffer with 0.3% Triton X-100; 5 ug cross-linked antibodies, 12 h at 4 C; five washes; western blot; alternatively the nuclear complex co-IP kit (Active Motif)
Settings: remark: other sources report otherwise

binding: binds
B1: RBL2/p130, Q08999 1-1139 (protein)
chain: MPSGGDQSPPPPPPPPAAAASDEEEEDDGEAEDAAPPAESPTPQIQQRFDELCSRLNMDEAARAEAWDSYRSMSESYTLEGNDLHWLACALYVACRKSVPTVSKGTVEGNYVSLTRILKCSEQSLIEFFNKMKKWEDMANLPPHFRERTERLERNFTVSAVIFKKYEPIFQDIFKYPQEEQPRQQRGRKQRRQPCTVSEIFHFCWVLFIYAKGNFPMISDDLVNSYHLLLCALDLVYGNALQCSNRKELVNPNFKGLSEDFHAKDSKPSSDPPCIIEKLCSLHDGLVLEAKGIKEHFWKPYIRKLYEKKLLKGKEENLTGFLEPGNFGESFKAINKAYEEYVLSVGNLDERIFLGEDAEEEIGTLSRCLNAGSGTETAERVQMKNILQQHFDKSKALRISTPLTGVRYIKENSPCVTPVSTATHSLSRLHTMLTGLRNAPSEKLEQILRTCSRDPTQAIANRLKEMFEIYSQHFQPDEDFSNCAKEIASKHFRFAEMLYYKVLESVIEQEQKRLGDMDLSGILEQDAFHRSLLACCLEVVTFSYKPPGNFPFITEIFDVPLYHFYKVIEVFIRAEDGLCREVVKHLNQIEEQILDHLAWKPESPLWEKIRDNENRVPTCEEVMPPQNLERADEICIAGSPLTPRRVTEVRADTGGLGRSITSPTTLYDRYSSPPASTTRRRLFVENDSPSDGGTPGRMPPQPLVNAVPVQNVSGETVSVTPVPGQTLVTMATATVTANNGQTVTIPVQGIANENGGITFFPVQVNVGGQAQAVTGSIQPLSAQALAGSLSSQQVTGTTLQVPGQVAIQQISPGGQQQKQGQSVTSSSNRPRKTSSLSLFFRKVYHLAAVRLRDLCAKLDISDELRKKIWTCFEFSIIQCPELMMDRHLDQLLMCAIYVMAKVTKEDKSFQNIMRCYRTQPQARSQVYRSVLIKGKRKRRNSGSSDSRSHQNSPTELNKDRTSRDSSPVMRSSSTLPVPQPSSAPPTPTRLTGANSDMEEEERGDLIQFYNNIYIKQIKTFAMKYSQANMDAPPLSPYPFVRTGSPRRIQLSQNHPVYISPHKNETMLSPREKIFYYFSNSPSKRLREINSMIRTGETPTKKRGILLEDGSESPAKRICPENHSALLRRLQDVANDRGSH
